Measured values: the supplement of paper PMC9744312
Where a name gives a salt, the structure may show the parent alone. The list shows a part of the results. Single values of this set are uncertain.

These molecules were tested on Peyronie's disease tunica albuginea primary fibroblasts (assay: inhibition of TGF-beta1-induced alpha-SMA expression (myofibroblast transformation), relative to TGF-beta1-only and untreated controls; higher = stronger inhibition of myofibroblast transformation). Settings: 10 µM; TGF-beta1 10 ng/mL; 72 h.

Structure (SMILES)	inhibition of TGF-beta1-induced alpha-SMA expression [%]
OC(c1ccccc1)(c1ccccc1)C12CC[N+](CCOCc3ccccc3)(CC1)CC2 [Umeclidinium bromide]	13.3
CC1(C)[C@H](C(=O)O)N2C(=O)C[C@H]2S1(=O)=O [Sulbactam]	18.3
CC1(C)[C@H](C(=O)O)N2C(=O)C[C@H]2S1(=O)=O [Sulbactam sodium]	13.6
Cc1ncc(CO)c(CO)c1O [Pyridoxine]	-3.56
Cc1ncc(CO)c(CO)c1O [Pyridoxine HCl]	56.6
Cc1c(C(=O)NN2CCCCC2)nn(-c2ccc(Cl)cc2Cl)c1-c1ccc(Cl)cc1 [Rimonabant]	> 100
COc1nc2ccc(Br)cc2cc1[C@@H](c1ccccc1)[C@@](O)(CCN(C)C)c1cccc2ccccc12 [Bedaquiline fumarate]	16.7
COc1nc2ccc(Br)cc2cc1[C@@H](c1ccccc1)[C@@](O)(CCN(C)C)c1cccc2ccccc12 [Bedaquiline]	21
COc1cc2c(cc1OC)CC(=O)N(CCCN(C)C[C@H]1Cc3cc(OC)c(OC)cc31)CC2 [Ivabradine HCl]	5.09
C[C@H]1c2cccc(O)c2C(=O)C2=C(O)[C@]3(O)C(=O)C(C(N)=O)=C(O)[C@@H](N(C)C)[C@@H]3[C@@H](O)[C@@H]21 [Doxycycline Hyclate]	14.9
C[C@H]1c2cccc(O)c2C(=O)C2=C(O)[C@]3(O)C(=O)C(C(N)=O)=C(O)[C@@H](N(C)C)[C@@H]3[C@@H](O)[C@@H]21 [Doxycycline]	20.3
Clc1ccc(C(Cn2ccnc2)OCc2ccsc2Cl)c(Cl)c1 (centres undefined) [Tioconazole]	47.5
C[C@](N)(Cc1ccc(O)c(O)c1)C(=O)O [Methyldopa]	1.63
NC(=O)CCC(N)C(=O)O (racemic) [DL-Glutamine]	-7.21
CCOC(=O)O[C@]1(C(=O)OCCl)CC[C@H]2[C@@H]3CCC4=CC(=O)C=C[C@]4(C)[C@H]3[C@@H](O)C[C@@]21C [Loteprednol etabonate]	46.1
CCc1cc2c(cc1N1CCC(N3CCOCC3)CC1)C(C)(C)c1[nH]c3cc(C#N)ccc3c1C2=O [Alectinib hydrochloride]	-2.14
O=C(O)C(=O)O.[NH-][C@@H]1CCCC[C@H]1[NH-].[Pt+2] [Oxaliplatin]	25.1
CC(C)C(=O)Oc1ccc(CO)cc1[C@H](CCN(C(C)C)C(C)C)c1ccccc1 [Fesoterodine Fumarate]	0.0929
Cc1ccc(NC(=O)c2ccc(CN3CCN(C)CC3)cc2)cc1Nc1nccc(-c2cccnc2)n1 [Imatinib (STI571)]	35.8
Cc1ccc(NC(=O)c2ccc(CN3CCN(C)CC3)cc2)cc1Nc1nccc(-c2cccnc2)n1 [Imatinib Mesylate (STI571)]	21.9
O=C(O)c1cn(C2CC2)c2cc(N3CCNCC3)c(F)cc2c1=O [Ciprofloxacin hydrochloride hydrate]	8.5
CCOc1nc2cccc(C(=O)OCc3oc(=O)oc3C)c2n1Cc1ccc(-c2ccccc2-c2noc(=O)[nH]2)cc1 [Azilsartan Medoxomil]	13.2
C#CCN[C@@H]1CCc2ccccc21 [Rasagiline Mesylate]	11.2

Reprinted from the results shown (three entries):
Structure (SMILES)	inhibition of TGF-beta1-induced alpha-SMA expression [%]
OC(c1ccccc1)(c1ccccc1)C12CC[N+](CCOCc3ccccc3)(CC1)CC2 [Umeclidinium bromide]	13.3
CC1(C)[C@H](C(=O)O)N2C(=O)C[C@H]2S1(=O)=O [Sulbactam]	18.3
CC1(C)[C@H](C(=O)O)N2C(=O)C[C@H]2S1(=O)=O [Sulbactam sodium]	13.6

Additional results follow.

Structure (SMILES)	inhibition of TGF-beta1-induced alpha-SMA expression [%]
C/C(=C\c1csc(C)n1)[C@@H]1C[C@@H]2O[C@]2(C)CCC[C@H](C)[C@H](O)[C@@H](C)C(=O)C(C)(C)[C@@H](O)CC(=O)N1	84.9
CC(C)(OCc1nn(Cc2ccccc2)c2ccccc12)C(=O)O [Bindarit]	4.15
COc1cc(C(=O)NCc2ccc(OCCN(C)C)cc2)cc(OC)c1OC [Tribenzagan Hydrochloride]	26.7
CCCN1CCCC[C@H]1C(=O)Nc1c(C)cccc1C [Ropivacaine HCl]	27.6
CCCN1CCCC[C@H]1C(=O)Nc1c(C)cccc1C [Ropivacaine]	3.22
CCN(C(=O)c1c(O)c2c(Cl)cccc2n(C)c1=O)c1ccccc1 [Laquinimod]	7.45
CN1CC(=O)N2[C@H](c3ccc4c(c3)OCO4)c3[nH]c4ccccc4c3C[C@@H]2C1=O [Tadalafil]	15
CC(C)NCC(O)COc1ccc(CCOCC2CC2)cc1 (centres undefined) [Betaxolol HCl]	18.2
CC(C)NCC(O)COc1ccc(CCOCC2CC2)cc1 (centres undefined) [Betaxolol]	3.3
CCc1nc(N)nc(N)c1-c1ccc(Cl)cc1 [Pyrimethamine]	17.6
CC(=O)[C@@]1(O)CC[C@H]2[C@@H]3C[C@H](C)C4=CC(=O)C=C[C@]4(C)[C@@]3(F)[C@@H](O)C[C@@]21C [Fluorometholone]	78.2
CCN(CC)CCNC(=O)c1cc(Cl)c(N)cc1OC [Metoclopramide HCl]	13.5
CCOc1ccc2ccccc2c1C(=O)N[C@@H]1C(=O)N2[C@@H]1SC(C)(C)[C@@H]2C(=O)O [Nafcillin Sodium]	-3.27
CC1=NN(c2ccccc2)C(=O)C1 [Edaravone]	19.4
CCC[C@@H]1C[C@@H](C(=O)N[C@@H]([C@H]2O[C@H](SC)[C@H](O)[C@@H](O)[C@H]2O)[C@H](C)Cl)N(C)C1 [Clindamycin HCl]	13.8
CCC[C@@H]1C[C@@H](C(=O)N[C@@H]([C@H]2O[C@H](SC)[C@H](O)[C@@H](O)[C@H]2O)[C@H](C)Cl)N(C)C1 [Clindamycin]	-9.76
O=C(O)CCNC(=O)c1ccccc1 [Betamipron]	-12.6
O=C(N[C@H](CO)[C@H](O)c1ccc([N+](=O)[O-])cc1)C(Cl)Cl [Chloramphenicol]	7.32
C=C1/C(=C\C=C2/CCC[C@]3(C)[C@@H]([C@H](C)CCCC(C)C)CC[C@@H]23)C[C@@H](O)C[C@@H]1O [Alfacalcidol]	-39.7
CN(C)CCC=C1c2ccccc2COc2ccccc21 [Doxepin HCl]	33.3
CN1CCC[C@@H]1Cc1c[nH]c2ccc(CCS(=O)(=O)c3ccccc3)cc12 [Eletriptan HBr]	23.2
CC(C)[N+](C)(CCOC(=O)C1c2ccccc2Oc2ccccc21)C(C)C [Propantheline bromide]	11.9
COc1ccccc1Oc1c(NS(=O)(=O)c2ccc(C(C)(C)C)cc2)nc(-c2ncccn2)nc1OCCO [Bosentan Hydrate]	16.7

Structure (SMILES)	inhibition of TGF-beta1-induced alpha-SMA expression [%]
COc1cc2c(Oc3ccc(NC(=O)C4(C(=O)Nc5ccc(F)cc5)CC4)cc3F)ccnc2cc1OCCCN1CCOCC1	> 100
NS(=O)(=O)c1cc2c(cc1Cl)NC(C(Cl)Cl)NS2(=O)=O (centres undefined) [Trichlormethiazide]	30.4
CN[C@@H]1[C@H](O)[C@H](NC)[C@H]2O[C@@]3(O)C(=O)C[C@@H](C)O[C@H]3O[C@@H]2[C@H]1O [Spectinomycin 2HCl]	29.7
Cc1onc(-c2ccccc2Cl)c1C(=O)N[C@@H]1C(=O)N2[C@@H]1SC(C)(C)[C@@H]2C(=O)O [Cloxacillin Sodium]	16.5
C#Cc1cccc(Nc2ncnc3cc(OCCOC)c(OCCOC)cc23)c1 [Erlotinib]	3.37
C#Cc1cccc(Nc2ncnc3cc(OCCOC)c(OCCOC)cc23)c1 [Erlotinib HCl (OSI-744)]	-35.1
CCN(CC)CCOC(=O)c1ccc(N)cc1Cl [Chloroprocaine HCl]	-7.72
C[C@@H]1NC(=O)[C@@H](N)CNC(=O)[C@H](C2CCNC(=N)N2)NC(=O)/C(=C/NC(N)=O)NC(=O)[C@H](CNC(=O)CC(N)CCCN)NC1=O.N=C1NCC[C@H]([C@@H]2NC(=O)/C(=C/NC(N)=O)NC(=O)[C@H](CNC(=O)C[C@@H](N)CCCN)NC(=O)[C@H](CO)NC(=O)[C@@H](N)CNC2=O)N1 [Capreomycin Sulfate]	15.3
CC12CCC(CC1=O)C2(C)C (stereo not drawn) [(+)-Camphor]	0.0607
Cc1c(-c2ccccc2)oc2c(C(=O)OCCN3CCCCC3)cccc2c1=O [Flavoxate HCl]	26.6
NCCCC(=O)O [4-Aminobutyric acid]	11.9
CCCCCCOC(=O)NC(=N)c1ccc(NCc2nc3cc(C(=O)N(CCC(=O)OCC)c4ccccn4)ccc3n2C)cc1 [Dabigatran Etexilate]	-9.63
COc1ccc(O)cc1 [Mequinol]	20.4
CC(C(=O)O)c1ccc2c(c1)[nH]c1ccc(Cl)cc12 (centres undefined) [Carprofen]	19
CO/N=C(\C(=O)N[C@@H]1C(=O)N2C(C(=O)O)=C(CSc3nnnn3C)CS[C@H]12)c1csc(N)n1 [Cefmenoxime hydrochloride]	9.39
Cc1ccccc1C(=O)Nc1ccc(C(=O)N2CCCC(O)c3cc(Cl)ccc32)c(C)c1 (centres undefined) [Tolvaptan]	37
CC(=O)C1C(=O)C=C(C)OC1=O (centres undefined) [Dehydroacetic acid]	-27.4
Nc1nc2[nH]cnc2c(=S)[nH]1 [Thioguanine]	2.66
CC(C)c1cc2c(cc1S(=O)(=O)O)[C@@]1(C)CCC[C@@](C)(C(=O)O)[C@@H]1CC2 [Ecabet sodium]	14.1
CN(C)C(=O)C(CCN1CCC(O)(c2ccc(Cl)cc2)CC1)(c1ccccc1)c1ccccc1 [Loperamide HCl]	57.4
Cc1c(OCC(F)(F)F)ccnc1C[S@@+]([O-])c1nc2ccccc2[nH]1 [Dexlansoprazole]	-27.4
CC[C@H]1OC(=O)[C@H](C)[C@@H](O[C@H]2C[C@@](C)(OC)[C@@H](O)[C@H](C)O2)[C@H](C)[C@@H](O[C@@H]2O[C@H](C)C[C@H](N(C)C)[C@H]2O)[C@](C)(O)C[C@@H](C)C(=O)[C@H](C)[C@H]2OC(=O)O[C@@]21C [Erythromycin Cyclocarbonate]	31.4
C[C@H](CCC(=O)O)[C@H]1CC[C@H]2[C@@H]3[C@H](O)C[C@@H]4C[C@H](O)CC[C@]4(C)[C@H]3C[C@H](O)[C@]12C [Cholic acid]	4.57
